Among the data in PubChem BioAssay AID445 (National Center for Advancing Translational Sciences (NCATS), 2006) are AC50 values, retold here.

The other results are listed elsewhere or left out. The main result of the screen is listed elsewhere. These columns were measured beside it and carry no call. Most of these compounds were active or inconclusive in the main read-out, so they are no random draw. Words in brackets tell the shape of the fitted curve; partial curves, single points and poor fits give uncertain potencies.

As usually defined, the AC50 is the midpoint of the concentration-response curve, whichever way the signal moves.

A short description of the assay: IkB Signaling. The settings on record: ABC-DLBCL IkBa-CBG/CBR dual luciferase ratio (green luciferase fused to IkBa over red control in OCI-Ly3 lymphoma cells), 4 h; measured here: control luc red channel unless noted. The essentials: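 In this assay, an IκBα–CBG68 fusion accumulates when IKK-driven degradation is blocked; native CBR normalizes for cell number. OCI-Ly3 cells were treated 4 h with compound and doxycycline, then green and red light read after Chroma-Glo addition.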
`CCOc1ccc(CCNC(=O)c2cc3sccc3n2CC)cc1OCC`: the AC50 was 15.8 µM [falling, single point]. Take `CCOC(=O)CSc1nnc(CSc2nc3ccccc3c(=O)[nH]2)n1-c1ccccc1`: the AC50 was 20 µM [falling, partial curve].

Consider `Cc1nc2c(-c3ccc(F)cc3)c(C)nn2c(N2CCOCC2)c1C`, for which the AC50 was 39.8 µM [falling, single point]. For `O=C(COC(=O)c1cccnc1Nc1cccc(C(F)(F)F)c1)NCCN1C(=O)CSC1=O` the value was 20 µM [falling, single point]; for `COc1cc(C2C(C(=O)Nc3ccc(Cl)cc3)=C(C)Nc3nc(SC)nn32)cc(OC)c1OC` (stereo not drawn), 0.2 µM [rising, full curve, poor fit]; for `Cc1nn(CC(=O)NCCc2ccccc2)c(=O)c2nn(-c3ccccc3)c(C)c12`, 1.58 µM [rising, full curve].

Take `Cc1ccc(-n2nc3c(N4CCC(C(=O)NC5CCCCC5)CC4)nnc(C)c3c2C)cc1`: the AC50 is 1.58 µM [falling, partial curve]. For `CC(C)Cc1ccc(S(=O)(=O)NCc2nc3cccnc3n2Cc2ccccc2)cc1` the value was 0.1 µM [rising, full curve, poor fit].

Take `Cc1ccc(/C=C/C(=O)N2CCC(c3nc4ccccc4o3)CC2)cc1`: the AC50 was 0.794 µM [falling, full curve]. For `O=C(NCCCN1CCN(Cc2ccccc2)CC1)C1CCN(c2nnc(-n3cccc3)s2)CC1` the value was 6.31 µM [falling, partial curve]; for `CCCCNC(=O)c1ccc2c(c1)N=C(CC)c1ccccc1S2`, 0.398 µM [rising, full curve, poor fit]; for `CCc1cccc(CC)c1NC(=O)c1c(C)oc2ccc(O)c(CN3CCCC3)c12`, 12.6 µM [falling, single point].

As for `COc1ccc(CCNc2oc(Cc3cccc4ccccc34)nc2C#N)cc1OC`, the AC50 is 10 µM [falling, partial curve]. `Cc1nc(NC(=O)c2cc3c(s2)CCCCC3)sc1C(=O)N(C)C`: the AC50 was 5.01 µM [falling, partial curve].

Turning to `Cc1ccc(N2C(=O)CSC23C(=O)N(CC(=O)NCc2ccccc2)c2ccccc23)cc1` (stereo not drawn), the AC50 is 39.8 µM [falling, single point]. For `O=C(CN1C(=O)C2(SCC(=O)N2c2ccc(F)cc2)c2ccccc21)NC1CCCCC1` (stereo not drawn) the value was 12.6 µM [falling, partial curve]; for `Cc1ccccc1-n1nnnc1SCc1csc(-c2ccccc2)n1`, 25.1 µM [falling, single point]. As to `Cc1ccc2c(c1)C(=O)OC(C(=O)Nc1ccccc1C(=O)O)C2` (stereo not drawn), the AC50 is 0.158 µM [falling, full curve].

For the molecule `NC(=O)c1ccccc1N/C=C/C(=O)c1ccccc1`, the AC50 is 0.316 µM [falling, full curve]. On to `O=S(=O)(c1ccc(-c2cnc(C3CC3)o2)cc1)N1CCN(c2ccccc2F)CC1`, for which the AC50 was 6.31 µM [falling, single point]. Consider `O=C(NCCCN1CCN(c2cccc(Cl)c2)CC1)c1ccc2nc(Cc3ccccc3)oc2c1`, for which the concentration at half-maximal activity (AC50) was 20 µM [falling, partial curve].

As to `COc1cccc(CNC(=O)Cn2nc(C)c3sc4ccccc4c3c2=O)c1OC`, the concentration at half-maximal activity (AC50) is 6.31 µM [falling, single point]. For `Cc1cccc(C)c1OCC(=O)N(Cc1ccco1)Cc1ccco1` the value was 20 µM [falling, single point].

For the molecule `C=Cc1ccc(Cn2c(C)c(CNCCc3ccc(OCC)cc3)c(C(=O)O)c2C)cc1`, the AC50 is 31.6 µM [falling, partial curve]. For the molecule `CCn1cc(C(=O)N2CCN(c3cccc(Cl)c3)CC2)c(=O)c2cc(S(=O)(=O)N3CCC(C)CC3)ccc21`, the AC50 was 7.94 µM [falling, partial curve]. For `Cc1ccc2c(=O)cc(CSc3ncn[nH]3)[nH]c2c1C` the value was 0.02 µM [falling, full curve, poor fit]. For `COc1cc(C(=O)NCCc2sc(-c3cccc(F)c3)nc2C)cc(OC)c1OC` the value was 25.1 µM [falling, partial curve]; for `Cc1nc2cc(-c3cccc(F)c3)nn2c(C)c1CCC(=O)NC(C)c1ccccc1` (stereo not drawn), 5.01 µM [falling, partial curve]; for `COC(=O)c1c(NC(=O)C2c3ccccc3Oc3ccccc32)sc2c1CCC(C(C)(C)C)C2` (stereo not drawn), 0.794 µM [falling, full curve].

With `COc1cc2c(cc1NC(=O)c1ccccc1C)n(C)c(=O)n2C`, the AC50 was 10 µM [rising, partial curve, poor fit]. Consider `O=C(CSc1oc(-c2ccc(F)cc2)nc1S(=O)(=O)c1ccccc1)NC1CCCCC1`, for which the AC50 is 0.631 µM [falling, single point]. On to `COc1ccc(CN(C(=O)CSc2nnc(-c3ccccc3F)o2)c2ccc(F)cc2)cc1`, for which the AC50 is 12.6 µM [falling, partial curve]. For `CCOC(=O)c1ccc(NC(=O)c2oc3c(c2C)-c2nn(Cc4ccccc4Cl)cc2CC3)cc1` the value was 2.51 µM [falling, full curve]; for `COCCOC(=O)c1c(C)oc2ccc(NS(=O)(=O)c3ccc(F)cc3)cc12`, 6.31 µM [falling, partial curve]. On to `Cn1c(=O)c2c(nc(NCCc3ccccc3)n2Cc2ccc(F)cc2)n(C)c1=O`, for which the AC50 was 7.94 µM [falling, partial curve]. Turning to `CN(c1cccc(NC(=O)Nc2cccc(Cl)c2)c1)S(C)(=O)=O`, the AC50 is 7.94 µM [falling, partial curve]. For `CCN1CCN(c2oc(COc3ccc(-c4ccccc4)cc3)nc2C#N)CC1` the value was 25.1 µM [falling, single point]; for `Cc1cc2oc(C(=O)N(Cc3ccc(N(C)C)cc3)Cc3ccco3)c(C)c2cc1Cl`, 12.6 µM [falling, single point]; for `Cc1ccccc1Nc1nc(N)c(C(=O)c2ccccc2Cl)s1`, 6.31 µM [falling, partial curve].

Turning to `CCCCc1ccc(NC(=O)CSc2nc(=O)[nH]c3c2CCCC3)cc1`, the half-maximal activity concentration (AC50) is 12.6 µM [falling, partial curve]. For `COc1ccc(Cl)cc1N(C)C(=O)CCc1nc(-c2ccc(C)cc2)no1` the value was 1 µM [falling, partial curve].

With `O=C(CSc1nc2c([nH]c3ccccc32)c(=O)n1-c1ccccc1F)Nc1cccc(C(F)(F)F)c1`, the AC50 is 25.1 µM [falling, single point]. For `COc1cccc(N2CC(NC(=O)COc3ccccc3F)CC2=O)c1` (stereo not drawn) the value was 6.31 µM [rising, single point]; for `COC(=O)CCN(c1ccccc1)C(CNS(=O)(=O)c1ccccc1)c1ccccc1` (stereo not drawn), 15.8 µM [falling, partial curve]; for `O=C(Nc1cccc(C(=O)OCc2cc(=O)n3nc(C4CC4)sc3n2)c1)c1cccc(Cl)c1`, 0.501 µM [falling, full curve]. As to `COc1ccc(-c2nnc(SC(C)C(=O)O)o2)cc1` (stereo not drawn), the AC50 was 15.8 µM [falling, partial curve]. Regarding `O=C(CN1C(=O)CSc2ccc(S(=O)(=O)N3CCCC3)cc21)NCc1ccccc1Cl`, the AC50 was 25.1 µM [falling, single point]. For `CC(=O)N1CCCc2cc(S(=O)(=O)N3CCCC(C(=O)NC(C)C)C3)ccc21` (stereo not drawn) the value was 0.0398 µM [falling, full curve, poor fit].

`CCCCNC(=O)CCc1c(C)nc2cc(-c3ccccc3)nn2c1C`: the AC50 was 5.01 µM [falling, partial curve]. Regarding `CC(=O)c1cccc(NC(=O)C2CCCN(S(=O)(=O)c3cccc4cccnc34)C2)c1` (stereo not drawn), the AC50 was 25.1 µM [falling, partial curve]. In the case of `Cc1[nH]c2ccccc2c1C1(O)C(=O)N(Cc2ccccc2)c2ccc(Cl)cc21` (stereo not drawn), the AC50 is 20 µM [falling, partial curve]. As to `CCOc1ccc(C2c3c(oc4ccc(C)cc4c3=O)C(=O)N2CCCN(C)C)cc1OC` (stereo not drawn), the half-maximal activity concentration (AC50) was 6.31 µM [rising, single point]. For `CC(C)Oc1ccc(CNC(=O)c2sc3ncccc3c2-n2cccc2)cc1`, the AC50 is 7.94 µM [falling, partial curve].

`CCc1ccc2occ(CC(=O)Nc3ccc(OC)c(Cl)c3)c2c1`: the AC50 was 20 µM [falling, partial curve].

In the case of `O=C(CSc1cccc(C(F)(F)F)c1)NC(=O)NCc1ccco1`, the AC50 is 12.6 µM [falling, partial curve].

For the molecule `COc1ccc(CN(Cc2ccco2)C(=O)COc2ccccc2OC)cc1`, the AC50 is 39.8 µM [falling, single point].

As for `CCc1ccccc1-n1cnc2cc(C(=O)NC3CCCCCC3)ccc21`, the half-maximal activity concentration (AC50) is 31.6 µM [falling, partial curve].

As for `O=C(Nc1ccccc1Cl)[C@H](CSCc1ccccc1)N1Cc2ccccc2C1=O`, the AC50 was 31.6 µM [falling, single point]. For `O=C(c1ccc2c(c1)CCN2S(=O)(=O)c1ccccc1)N1CCN(c2ccccc2F)CC1` the value was 25.1 µM [falling, single point]. For `COc1ccccc1NC(=O)CSc1nnc(-c2ccc(C)cc2)o1` the value was 3.98 µM [falling, partial curve]. For `COc1ccc(-c2ccc(NS(=O)(=O)c3cc(C)c(C)cc3C)cc2)nn1` the value was 20 µM [falling, partial curve]; for `CCn1nc(C)c2c(-c3ccccc3)cc(=O)n(C(C)C(=O)Nc3cc(C)ccc3C)c21` (stereo not drawn), 3.98 µM [rising, partial curve]; for `Clc1ccc(CCNC(c2ccc(Cl)cc2)c2nnc(-c3ccccc3)o2)cc1` (stereo not drawn), 0.631 µM [falling, full curve].
